# About 7,700 (2.3%) of roughly 330,000 compounds were called active. The inconclusive results got no clear call from the source; some entries with a clear call stand among them for comparison. Calls come from the whole dose curve; as a rule, active = well fitted inhibition curve with a large enough effect; inconclusive = small, poorly fitted or top-dose-only effect, or effect the other way; inactive = flat fitted curve, though single readings scatter. Potencies of inconclusive entries are doubtful fits and often do not repeat.
# Experiment: qHTS screen for small molecules that inhibit ELG1-dependent DNA repair in human embryonic kidney (HEK293T) cells expressing luciferase-tagged ELG1; note: nearly all actives have a fitted effect of over 55% in size
# Conditions: HEK293T ELG1-luciferase reporter, luminescence, 16 h, DNA damage induced by 5-fluorouridine; activity change, negative = inhibition: at 46.1 µM (top of the series)
# How it was run: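 Overnight (16 hr) co-exposure of 2,000 cells/well to 5-fluorouridine and compound at 37 °C preceded detection. Luciferase was quantified via ONE-Glo luminescence; loss of signal denotes inhibition.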
# % is set by controls: 0 for no effect and ±100 for the full control effect; potency is the fitted concentration of half-maximal effect.
SMILES,Potency,"activity change, negative = inhibition"
Cc1ccc(C(=O)N(CC(=O)Nc2sc(C)c(C)c2C(N)=O)C2CCCC2)cc1,"inconclusive: 20.6 µM [inhibitor, single point]",
CN(CCOc1ccccc1)CC(=O)Nc1ccc(Cl)cc1[N+](=O)[O-],inactive,
CCOC(=O)CSc1nc(-c2ccccc2)ns1,"inconclusive: 14.6 µM [activator, partial curve, poor fit]",
Cc1cccc(NC(=O)C2CCCN(C(=O)NC3CCCCC3)C2)c1C (configuration not stated),"inconclusive: 25.9 µM [inhibitor, single point]",
Cc1cc(Cl)ccc1NC(=S)NCc1ccccc1Cl,inactive,
CC(C)(C)C(=O)NC1(C(F)(F)F)NC(=O)N(c2ccccc2F)C1=O (configuration not stated),inactive,
CCN(CC)CCCNC(=O)c1sc2nc(-c3ccc(F)cc3)cn2c1C,"inconclusive: 18.4 µM [activator, single point]",
O=C(NCC1OCCc2ccccc21)c1ccc(NC(=O)c2ccccc2Cl)cc1 (configuration not stated),"inconclusive: 23.1 µM [inhibitor, single point]",
CNc1ccc(Cl)cc1C(N)=O,inactive,
O=C(NCC(c1ccco1)N1CCc2ccccc21)c1ccc([N+](=O)[O-])cc1 (configuration not stated),"inconclusive: 29.1 µM [inhibitor, single point]",
CCCOc1ccc(/C=C/C(=O)N2CCN(c3ccccn3)CC2)cc1,inactive,
CN(C(=O)CSc1nc(-c2ccccc2)cn1N)C(c1ccccc1)c1ccccc1,"inconclusive: 29.1 µM [inhibitor, single point]",
O=C(Nc1nccs1)c1cccc(S(=O)(=O)N2CCCCC2)c1,"inconclusive: 4.11 µM [inhibitor, single point]",
COc1cnc(-c2ccccc2)nc1OC,,inconclusive: 84.4% [activator]
CCNc1nc(NC(C)C)nc(N(C#N)C(C)C(=O)N(CC)CC)n1 (configuration not stated),inactive,
COc1ccc(NC(=O)CSc2nnc(-c3ccoc3C)n2CC2CCCO2)cc1 (configuration not stated),inactive,
COc1ccccc1N(C)S(=O)(=O)c1ccc(C(=O)NC2CCCCC2)cc1,active: 23.1 µM,
CCN(CC)C(=S)SC1CCCCN(C(=O)c2ccccc2)C1=O (configuration not stated),inactive,
CC(OC(=O)c1ccccc1NCc1ccco1)C(=O)Nc1ncc(Cl)cc1Cl (configuration not stated),"inconclusive: 25.9 µM [inhibitor, single point]",
CCOc1ccc(C(C)=O)cc1CN1C(=O)NC2(CCCCCCC2)C1=O,inactive,
CCN(CC(=O)Nc1ccc(NC(C)=O)cc1)C(=O)c1ccccc1Sc1ccccc1C#N,"inconclusive: 20.6 µM [inhibitor, single point]",
c1ccc(-c2noc(CSc3nnnn3-c3ccccc3)n2)cc1,inactive,
COc1ccc(NC(=O)C(NC(=O)CC2NC(=O)NC2=O)c2ccccc2)cc1 (configuration not stated),"inconclusive: 10.3 µM [activator, partial curve]",
Cc1cc(OCC(=O)NC2CC2)c2c(C)c(C)c(=O)oc2c1,"inconclusive: 18.3 µM [activator, partial curve]",

SMILES,Potency,"activity change, negative = inhibition"
CC(=O)Nc1ccc(Nc2ncnc3ccccc23)cc1,"inconclusive: 11.6 µM [activator, partial curve, poor fit]",
CC(=O)c1cccc(NS(=O)(=O)c2csc(C(N)=O)c2)c1,"inconclusive: 14.6 µM [inhibitor, partial curve, poor fit]",
CN(C)C1NC(=O)c2cc(-c3ccccc3)sc2N1 (configuration not stated),"inconclusive: 23.1 µM [activator, single point]",
NC(=O)c1ccsc1NC(=O)C1CCN(S(=O)(=O)c2cccs2)CC1,"inconclusive: 18.3 µM [inhibitor, single point]",
Cc1cc(C)n(C2CCCCC2OC(=O)CCc2ccccc2)n1 (configuration not stated),inactive,
CCc1ccccc1NC(=O)c1cnc2n(c1=O)CCS2,"inconclusive: 32.6 µM [activator, partial curve, poor fit]",
CN(C)CCNC(=O)c1ccccc1-c1cc2ccccc2c(=O)o1,inactive,
O=C(Nc1ccccc1)Nc1ccc(Oc2cccnc2)nc1,"inconclusive: 2.91 µM [activator, single point]",
Cc1ccc(C(=O)N2CCN(c3ccc(NC(=O)COc4ccccc4C)cc3)CC2)cc1,"inconclusive: 20.6 µM [inhibitor, single point]",
CC(C)C(=O)Nc1nc2cc3c(cc2s1)OCCO3,"inconclusive: 1.83 µM [activator, partial curve]",
O=C1Nc2cc(C(=O)N3CCOCC3)ccc2S/C1=C\c1ccccc1,"inconclusive: 10.3 µM [inhibitor, partial curve]",
O=C(c1ccc(CSc2nc3ccncc3[nH]2)cc1)N1CCN(c2cccc(Cl)c2)CC1,active: 25.9 µM,
COc1ccc(NC(=O)C(=O)NCC2CCCN2S(=O)(=O)c2cc(C)ccc2C)cc1 (configuration not stated),"inconclusive: 5.8 µM [inhibitor, full curve, poor fit]",
Cc1ccc(-n2ncc3c(NCc4cccnc4)ncnc32)c(C)c1,inactive,
CCC(C)Sc1nnc(NC(=O)C2CCN(C(=O)c3ccco3)CC2)s1 (configuration not stated),inactive,
Cc1cc(C(=O)NCc2nc(-c3ccccc3)no2)ccc1[N+](=O)[O-],"inconclusive: 14.6 µM [inhibitor, partial curve, poor fit]",
Cc1ccc(-c2nnn(CC(=O)Nc3ccc4nn(-c5ccccc5)nc4c3)n2)o1,"inconclusive: 7.31 µM [activator, partial curve]",
c1cc2c(cc1C1=Nn3c(nnc3C3CCCCC3)SC1)OCO2,"inconclusive: 29.1 µM [inhibitor, single point]",
CC(C)(C)NC(=O)c1cccc(NC(=O)c2ccc(NC(=O)c3ccco3)cc2)c1,"inconclusive: 18.4 µM [inhibitor, partial curve, poor fit]",
CCOc1ccc(NC(=S)NC(=O)C2CCCC2)cc1,"inconclusive: 1.3 µM [activator, full curve, poor fit]",
COC(=O)c1cc(CNC(=O)CCCSc2ccccc2)ccc1OC,inactive,
CC(=C\c1ccccc1)/C=C1/SC(=S)N(CCC(=O)O)C1=O,"inconclusive: 23.1 µM [activator, single point]",
C(=N\N(c1ccccc1)c1ccccc1)/c1ccc2c(c1)OCO2,inactive,
CCOC(=O)C1(CCOc2ccccc2)CCN(Cc2ccc3c(c2)OCCO3)CC1,"inconclusive: 29.1 µM [inhibitor, single point]",

# Shown with bars between the fields: 15 of the compounds above.
SMILES | Potency | activity change, negative = inhibition
CCN(CC)C(=S)SC1CCCCN(C(=O)c2ccccc2)C1=O (configuration not stated) | inactive | 
CC(OC(=O)c1ccccc1NCc1ccco1)C(=O)Nc1ncc(Cl)cc1Cl (configuration not stated) | inconclusive: 25.9 µM [inhibitor, single point] | 
CCOc1ccc(C(C)=O)cc1CN1C(=O)NC2(CCCCCCC2)C1=O | inactive | 
CCN(CC(=O)Nc1ccc(NC(C)=O)cc1)C(=O)c1ccccc1Sc1ccccc1C#N | inconclusive: 20.6 µM [inhibitor, single point] | 
c1ccc(-c2noc(CSc3nnnn3-c3ccccc3)n2)cc1 | inactive | 
COc1ccc(NC(=O)C(NC(=O)CC2NC(=O)NC2=O)c2ccccc2)cc1 (configuration not stated) | inconclusive: 10.3 µM [activator, partial curve] | 
Cc1cc(OCC(=O)NC2CC2)c2c(C)c(C)c(=O)oc2c1 | inconclusive: 18.3 µM [activator, partial curve] | 
CC(=O)Nc1ccc(Nc2ncnc3ccccc23)cc1 | inconclusive: 11.6 µM [activator, partial curve, poor fit] | 
CC(=O)c1cccc(NS(=O)(=O)c2csc(C(N)=O)c2)c1 | inconclusive: 14.6 µM [inhibitor, partial curve, poor fit] | 
CN(C)C1NC(=O)c2cc(-c3ccccc3)sc2N1 (configuration not stated) | inconclusive: 23.1 µM [activator, single point] | 
NC(=O)c1ccsc1NC(=O)C1CCN(S(=O)(=O)c2cccs2)CC1 | inconclusive: 18.3 µM [inhibitor, single point] | 
Cc1cc(C)n(C2CCCCC2OC(=O)CCc2ccccc2)n1 (configuration not stated) | inactive | 
CCc1ccccc1NC(=O)c1cnc2n(c1=O)CCS2 | inconclusive: 32.6 µM [activator, partial curve, poor fit] | 
CN(C)CCNC(=O)c1ccccc1-c1cc2ccccc2c(=O)o1 | inactive | 
O=C(Nc1ccccc1)Nc1ccc(Oc2cccnc2)nc1 | inconclusive: 2.91 µM [activator, single point] | 

# (list continues)

SMILES,Potency,"activity change, negative = inhibition"
O=S(=O)(Nc1ccc2c(c1)nc1n2CCN(Cc2ccccc2)C1)c1ccccc1,inactive,
O=C1c2cccnc2C(=O)N1Cc1ccc(Cl)cc1,inactive,
O=C(O)c1cccc(NC(=O)c2cc(-c3cccc(Cl)c3)nc3ccccc23)c1,"inconclusive: 18.3 µM [activator, single point]",
CCCOc1ccc([C@@H]2C3CN(C(=O)OCC)CC=C3C(C#N)=C(N)C2(C#N)C#N)cc1OC (some centres not stated),"inconclusive: 25.9 µM [inhibitor, single point]",
CC1CCc2c(sc(NC(=O)CCc3nc4ccccc4c(=O)[nH]3)c2C#N)C1 (configuration not stated),inactive,
Cc1cc(S(=O)(=O)N2CCCOC2CNC(=O)C(=O)NCCCN2CCOCC2)ccc1F (configuration not stated),inactive,
CO[C@@]12[C@H](COC(N)=O)C3=C(C(=O)C(C)=C(N)C3=O)N1C[C@@H]1N[C@@H]12,inactive,
CC(C(=O)O)c1ccc(N2Cc3ccccc3C2=O)cc1 (configuration not stated),"inconclusive: 0.411 µM [activator, partial curve, poor fit]",
Cc1ccc(C(=O)N/C(=C\c2ccccc2)C(=O)NCc2ccncc2)cc1,active: 1.84 µM,
CN(C)S(=O)(=O)c1ccc(C(=O)OCC(=O)NCc2ccco2)cc1,inactive,
C[C@H](CO)N1C[C@H](C)[C@@H](CN(C)C(=O)Nc2ccccc2)Oc2c(NC(=O)Nc3ccc4c(c3)OCO4)cccc2C1=O,"inconclusive: 7.3 µM [inhibitor, partial curve]",
COc1ccc(C)cc1Nc1nc(-c2ccccc2O)nc2ccccc12,inactive,
CCCNC(=O)COC(=O)c1ccccc1OCC(=O)Nc1ccc(Br)cc1,inactive,
CCOc1ccc(NC(=O)Cc2ccccc2)c([N+](=O)[O-])c1,"inconclusive: 18.4 µM [activator, single point]",
CNCc1ccccc1OCC(=O)Nc1ccccc1,"inconclusive: 14.6 µM [activator, partial curve]",
O=C(NCCC1=CCCCC1)C1CCCN(S(=O)(=O)c2cccc3cccnc23)C1 (configuration not stated),"inconclusive: 20.6 µM [inhibitor, partial curve, poor fit]",
CCOC(=O)c1c(-c2ccc(C)cc2)csc1NC(=O)CCN1CCOCC1,inactive,
O=[N+]([O-])c1ccc(C[n+]2ccc(Cc3ccccc3)cc2)cc1,"inconclusive: 5.17 µM [inhibitor, partial curve, poor fit]",
CCN(CC)S(=O)(=O)c1ccc(NC(=O)CCC2CCCCC2)cc1,"inconclusive: 29.1 µM [inhibitor, partial curve, poor fit]",
Cn1nc([N+](=O)[O-])nc1Oc1ccc2ccccc2c1,"inconclusive: 18.4 µM [inhibitor, partial curve, poor fit]",
CCNC(=O)COC(=O)c1cc(S(=O)(=O)N2CCCc3ccccc32)ccc1Cl,inactive,
Cc1ccc(Nc2c3c(nc4ccccc24)CCC3)cc1,"inconclusive: 23.1 µM [inhibitor, single point]",
COc1ccccc1NC(=O)Cn1c2ccc(F)cc2c2nc3n(c(=O)c21)CCS3,inactive,
CC1CCN(c2c(NCC3CCC(C(=O)N4CCc5ccccc5C4)CC3)c(=O)c2=O)CC1 (configuration not stated),active: 9.2 µM,
